Assay results reported in the supplement of paper PMC4604168 (melanoma cell lines).
The list shows a part of the results. Single values are uncertain, as repeats are few or missing.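 Cells were imaged in 1,536-well plates, and nuclei stained with an antibody against cleaved PARP were counted against all DNA-stained nuclei to give the apoptosis fraction. Screening doses were chosen to leave most cells alive, and resting and induced cleaved-PARP levels differ strongly between cell lines.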

tested on: WM1745; assay: cleaved PARP positive nuclei fraction relative to DMSO control; melanoma cells; higher = more apoptosis; details: library dose: low library concentration; 72 h

| SMILES | cleaved PARP positive nuclei fraction [%] |
| --- | --- |
| COc1cc([C@@H]2c3cc4c(cc3[C@@H](O[C@@H]3O[C@@H]5CO[C@@H](C)O[C@H]5[C@H](O)[C@H]3O)[C@H]3COC(=O)[C@H]23)OCO4)cc(OC)c1O [etoposide] + Nc1cccc2c1CN(C1CCC(=O)NC1=O)C2=O [lenalidomide] (first compound 0.02 µM, partner dose 1 µM) | 115 |
| CC[C@]1(O)C[C@H]2CN(CCc3c([nH]c4ccccc34)[C@@](C(=O)OC)(c3cc4c(cc3OC)N(C=O)[C@H]3[C@@](O)(C(=O)OC)[C@H](OC(C)=O)[C@]5(CC)C=CCN6CC[C@]43[C@@H]65)C2)C1 [vincristine] + Cc1cn(-c2cc(NC(=O)c3ccc(C)c(Nc4nccc(-c5cccnc5)n4)c3)cc(C(F)(F)F)c2)cn1 [nilotinib] (first compound 0.0001 µM, partner dose 0.2 µM) | 135 |
| N#CC[C@H](C1CCCC1)n1cc(-c2ncnc3[nH]ccc23)cn1 [ruxolitinib] + Nc1cccc2c1CN(C1CCC(=O)NC1=O)C2=O [lenalidomide] (first compound 1 µM, partner dose 1 µM) | 90.6 |
| N#CC[C@H](C1CCCC1)n1cc(-c2ncnc3[nH]ccc23)cn1 [ruxolitinib] + COCC[n+]1c2c(n(Cc3cnccn3)c1C)C(=O)c1ccccc1C2=O [YM155] (first compound 1 µM, partner dose 0.0004 µM) | 89.4 |
| CCCCCCCCCCCCCCCCCCOP(=O)([O-])OC1CC[N+](C)(C)CC1 [Perifosine] + O=C(O)[C@@H]1[O][Sb](=[O])([O][Sb]2(=[O])[O][C@H]([C@H](O)CO)[C@H](O)[C@H](C(=O)O)[O]2)[O][C@H]([C@H](O)CO)[C@@H]1O [stibogluconate] (first compound 0.4 µM, partner dose 2 µM) | 97.4 |
| O=c1[nH]nc(Sc2ncc([N+](=O)[O-])s2)n1-c1ccc2c(c1)OCCO2 + Nc1ncn([C@H]2C[C@H](O)[C@@H](CO)O2)c(=O)n1 [decitabine] (first compound 0.2 µM, partner dose 0.1 µM) | 97 |
| O=C(Nc1cc(C(F)(F)F)cc(C(F)(F)F)c1)c1cc(Cl)ccc1O + CC(C)C[C@H](NC(=O)[C@H](Cc1ccccc1)NC(=O)c1cnccn1)B(O)O [Bortezomib] (first compound 0.016 µM, partner dose 0.001 µM) | 124 |
| N#CC[C@H](C1CCCC1)n1cc(-c2ncnc3[nH]ccc23)cn1 [ruxolitinib] + C[C@]1(O)C[C@@H](c2nc(-c3ccc4ccc(-c5ccccc5)nc4c3)c3c(N)nccn32)C1 [OSI906] (first compound 1 µM, partner dose 0.4 µM) | 107 |
| Cc1cc(Nc2cc(N3CCN(C)CC3)nc(Sc3ccc(NC(=O)C4CC4)cc3)n2)n[nH]1 [Tozasertib] + CNC(=O)c1cc(Oc2ccc(NC(=O)Nc3ccc(Cl)c(C(F)(F)F)c3)cc2)ccn1 [sorafenib] (first compound 0.006 µM, partner dose 0.4 µM) | 106 |
| Cc1ccc(Nc2nccc(N(C)c3ccc4c(C)n(C)nc4c3)n2)cc1S(N)(=O)=O [Pazopanib] + CN1CCN(c2ccc3nc(-c4c(N)c5c(F)cccc5[nH]c4=O)[nH]c3c2)CC1 [Dovitinib] (first compound 0.4 µM, partner dose 0.1 µM) | 107 |
| Cc1cn(-c2cc(NC(=O)c3ccc(C)c(Nc4nccc(-c5cccnc5)n4)c3)cc(C(F)(F)F)c2)cn1 [nilotinib] + Cn1c(=O)n(-c2ccc(C(C)(C)C#N)cc2)c2c3cc(-c4cnc5ccccc5c4)ccc3ncc21 [NVP-BEZ235] (first compound 0.2 µM, partner dose 0.004 µM) | 95 |
| O=c1[nH]nc(Sc2ncc([N+](=O)[O-])s2)n1-c1ccc2c(c1)OCCO2 + C=CCNC1=C2C[C@@H](C)C[C@H](OC)[C@H](O)[C@@H](C)/C=C(\C)[C@H](OC(N)=O)[C@@H](OC)/C=C\C=C(/C)C(=O)NC(=CC1=O)C2=O [Tanespimycin] (first compound 0.2 µM, partner dose 0.002 µM) | 84.3 |
| CCCCCCCCCCCCCCCCCCOP(=O)([O-])OC1CC[N+](C)(C)CC1 [Perifosine] + C#Cc1cccc(Nc2ncnc3cc(OCCOC)c(OCCOC)cc23)c1 [erlotinib] (first compound 0.4 µM, partner dose 0.8 µM) | 105 |
| COc1cc([C@@H]2c3cc4c(cc3[C@@H](O[C@@H]3O[C@@H]5CO[C@@H](C)O[C@H]5[C@H](O)[C@H]3O)[C@H]3COC(=O)[C@H]23)OCO4)cc(OC)c1O [etoposide] + C[C@]1(O)C[C@@H](c2nc(-c3ccc4ccc(-c5ccccc5)nc4c3)c3c(N)nccn32)C1 [OSI906] (first compound 0.02 µM, partner dose 0.4 µM) | 118 |
| CCCCCCCCCCCCCCCCCCOP(=O)([O-])OC1CC[N+](C)(C)CC1 [Perifosine] + C[C@@H](N)c1ccc(C(=O)Nc2ccnc3[nH]ccc23)cc1 [RKI983] (first compound 0.4 µM, partner dose 0.4 µM) | 101 |
| CCCCCCCCCCCCCCCCCCOP(=O)([O-])OC1CC[N+](C)(C)CC1 [Perifosine] + CCCS(=O)(=O)Nc1ccc(F)c(C(=O)c2c[nH]c3ncc(Cl)cc23)c1F [PLX4720] (first compound 0.4 µM, partner dose 0.08 µM) | 445 |
| O=C(/C=C/c1cccnc1)NCCCCC1CCN(C(=O)c2ccccc2)CC1 + Cc1cc(Nc2cc(N3CCN(C)CC3)nc(/C=C/c3ccccc3)n2)n[nH]1 [ENMD2076] (first compound 0.01 µM, partner dose 0.04 µM) | 99.9 |
| O=C(/C=C/c1cccnc1)NCCCCC1CCN(C(=O)c2ccccc2)CC1 + Clc1ccc(Nc2nnc(Cc3ccncc3)c3ccccc23)cc1 [vatalanib] (first compound 0.01 µM, partner dose 2 µM) | 95.2 |
| Cc1cc(Nc2cc(N3CCN(C)CC3)nc(Sc3ccc(NC(=O)C4CC4)cc3)n2)n[nH]1 [Tozasertib] + CC1(C)CCC(c2ccc(Cl)cc2)=C(CN2CCN(c3ccc(C(=O)NS(=O)(=O)c4ccc(N[C@H](CCN5CCOCC5)CSc5ccccc5)c(S(=O)(=O)C(F)(F)F)c4)cc3)CC2)C1 [ABT263] (first compound 0.006 µM, partner dose 0.4 µM) | 281 |
| CCCCCCCCCCCCCCCCCCOP(=O)([O-])OC1CC[N+](C)(C)CC1 [Perifosine] + NC(=O)c1ccc(N(C(N)=O)c2c(F)cccc2F)nc1-c1ccc(F)cc1F [VX702] (first compound 0.4 µM, partner dose 0.4 µM) | 120 |
| CCCCCCCCCCCCCCCCCCOP(=O)([O-])OC1CC[N+](C)(C)CC1 [Perifosine] + CC(=O)c1c(C)c2cnc(Nc3ccc(N4CCNCC4)cn3)nc2n(C2CCCC2)c1=O [palbociclib] (first compound 0.4 µM, partner dose 0.04 µM) | 120 |
| Cc1ccc(Nc2nccc(N(C)c3ccc4c(C)n(C)nc4c3)n2)cc1S(N)(=O)=O [Pazopanib] + O=C(O)c1ccc2c(c1)nc(Nc1cccc(Cl)c1)c1ccncc12 [CX4945] (first compound 0.4 µM, partner dose 0.4 µM) | 82.1 |
| Cc1cn(-c2cc(NC(=O)c3ccc(C)c(Nc4nccc(-c5cccnc5)n4)c3)cc(C(F)(F)F)c2)cn1 [nilotinib] + C=C(c1ccc(C(=O)O)cc1)c1cc2c(cc1C)C(C)(C)CCC2(C)C [Bexarotene] (first compound 0.2 µM, partner dose 2 µM) | 2390 |
| Cc1cc(Nc2cc(N3CCN(C)CC3)nc(Sc3ccc(NC(=O)C4CC4)cc3)n2)n[nH]1 [Tozasertib] + O=C(O)[C@@H]1[O][Sb](=[O])([O][Sb]2(=[O])[O][C@H]([C@H](O)CO)[C@H](O)[C@H](C(=O)O)[O]2)[O][C@H]([C@H](O)CO)[C@@H]1O [stibogluconate] (first compound 0.006 µM, partner dose 2 µM) | 108 |
| O=C(/C=C/c1cccnc1)NCCCCC1CCN(C(=O)c2ccccc2)CC1 + Nc1ccn([C@@H]2O[C@H](CO)[C@@H](O)C2(F)F)c(=O)n1 [gemcitabine] (first compound 0.01 µM, partner dose 0.0004 µM) | 106 |
| O=C(/C=C/c1cccnc1)NCCCCC1CCN(C(=O)c2ccccc2)CC1 + O=C(O)c1ccc2c(c1)nc(Nc1cccc(Cl)c1)c1ccncc12 [CX4945] (first compound 0.01 µM, partner dose 0.4 µM) | 96.1 |
| O=C(/C=C/c1cccnc1)NCCCCC1CCN(C(=O)c2ccccc2)CC1 + Cc1ccc(Nc2nccc(N(C)c3ccc4c(C)n(C)nc4c3)n2)cc1S(N)(=O)=O [Pazopanib] (first compound 0.01 µM, partner dose 0.4 µM) | 114 |
| Cc1cc(Nc2cc(N3CCN(C)CC3)nc(Sc3ccc(NC(=O)C4CC4)cc3)n2)n[nH]1 [Tozasertib] + CC(C)C[C@H](NC(=O)[C@H](Cc1ccccc1)NC(=O)c1cnccn1)B(O)O [Bortezomib] (first compound 0.006 µM, partner dose 0.001 µM) | 118 |

Quoted from the results shown for reference:

| SMILES | cleaved PARP positive nuclei fraction [%] |
| --- | --- |
| Cc1cn(-c2cc(NC(=O)c3ccc(C)c(Nc4nccc(-c5cccnc5)n4)c3)cc(C(F)(F)F)c2)cn1 [nilotinib] + Cn1c(=O)n(-c2ccc(C(C)(C)C#N)cc2)c2c3cc(-c4cnc5ccccc5c4)ccc3ncc21 [NVP-BEZ235] (first compound 0.2 µM, partner dose 0.004 µM) | 95 |
| O=c1[nH]nc(Sc2ncc([N+](=O)[O-])s2)n1-c1ccc2c(c1)OCCO2 + C=CCNC1=C2C[C@@H](C)C[C@H](OC)[C@H](O)[C@@H](C)/C=C(\C)[C@H](OC(N)=O)[C@@H](OC)/C=C\C=C(/C)C(=O)NC(=CC1=O)C2=O [Tanespimycin] (first compound 0.2 µM, partner dose 0.002 µM) | 84.3 |
